Measured values published in publication PMC7819943, “Rice protein-binding microarrays: a tool to detect cis-acting elements near promoter regions in rice”.
The list shows a part of the results.

Each sequence was assayed against T1, OsSMF1 (Oryza sativa, UniProt Q6ZLB0 1-436) (assay: protein-binding microarray (RPBM); PBS, 2% BSA, 51.3 ng/ul salmon testes DNA, 50 uM zinc acetate, 200 nM TF, 25 C, 1 h; high values mean tight binding). Conditions: protein: recombinant; tags: N-terminal polyhistidine and DsRed monomer fusion (pET32a); chain copies: 2; label: CyDye5-dUTP incorporated in the synthesized complementary strand; 3' TTTTT single-stranded linker to array surface; dsDNA, one strand shown.
T1 sequence: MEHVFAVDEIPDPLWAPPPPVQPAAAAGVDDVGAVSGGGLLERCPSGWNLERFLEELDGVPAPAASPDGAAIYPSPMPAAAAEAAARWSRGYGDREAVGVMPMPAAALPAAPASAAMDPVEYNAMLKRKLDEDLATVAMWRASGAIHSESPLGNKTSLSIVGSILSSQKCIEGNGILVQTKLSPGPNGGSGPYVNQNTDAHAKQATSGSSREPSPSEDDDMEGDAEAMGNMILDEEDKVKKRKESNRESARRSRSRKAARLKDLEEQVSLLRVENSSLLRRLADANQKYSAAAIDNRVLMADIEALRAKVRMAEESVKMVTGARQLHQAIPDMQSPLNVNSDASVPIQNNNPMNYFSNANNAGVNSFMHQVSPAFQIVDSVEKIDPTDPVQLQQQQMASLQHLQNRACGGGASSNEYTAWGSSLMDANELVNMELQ
How it was run: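 Transcription factors, each fused N-terminally to a polyhistidine tag and DsRed, were expressed in E. coli BL21-CodonPlus and purified on Ni–NTA. A custom Agilent array was made double-stranded by primer extension with Cy5-dUTP and blocked with 2% BSA. It was incubated with 200 nM protein in PBS, 2% BSA, salmon testes DNA and 50 µM zinc acetate at 25 °C for 1 h, then washed. The binding signal is per-feature fluorescence intensity (arbitrary units) read on an Axon 4000B scanner.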

Sequence	binding signal
GCCATCAACTAAGCAGTTTCAGTGAAACTTCCACCATGCTCGGAGTCACCTAGTGCAG	21800 fluorescence intensity (a.u.)
TAATACCAGTACTAGATCTCGACTAATCCCGCGTCACGAACGGAGTCACCTAGTGCAG	4700 fluorescence intensity (a.u.)
AGAACAGCCAACCCATTGATGAGTCAGCAAAGGATCAGATCGGAGTCACCTAGTGCAG	14400 fluorescence intensity (a.u.)
GCAGATCGTAATGACGTTATTCGATATTCGATCGATCGGCCGGAGTCACCTAGTGCAG	3240 fluorescence intensity (a.u.)
CAGATCCACGCCGCCACCTCCGCTGATCCGTGCCGCCGTCCGGAGTCACCTAGTGCAG	3330 fluorescence intensity (a.u.)
TGGGCAAGATGGTGAATTGGTGATGGTTCTCATGAATGGCCGGAGTCACCTAGTGCAG	3940 fluorescence intensity (a.u.)
CCTCTTCCTCCTCCTCGCATGCCCACCTCAGAATCATCTCCGGAGTCACCTAGTGCAG	4150 fluorescence intensity (a.u.)
AAAACAACAAGAGGACGCGAGGGGTCGGGGTGGGAGAGGGCGGAGTCACCTAGTGCAG	4590 fluorescence intensity (a.u.)
GGCCACAACGATCTCTCTCTCCAGTCTCGACTCCCCAGCTCGGAGTCACCTAGTGCAG	3290 fluorescence intensity (a.u.)
GGACCTACCCAAGTACGTGGACCCGCTGCCGCAGATGGCCCGGAGTCACCTAGTGCAG	3660 fluorescence intensity (a.u.)
CGGCGGCGGGCGCGGCGGGAGGAGGGCGATGACAGGTGGGCGGAGTCACCTAGTGCAG	5010 fluorescence intensity (a.u.)
TCTCCTCATCAATCCAATCTCATTAACTCATCACAAGCATCGGAGTCACCTAGTGCAG	36800 fluorescence intensity (a.u.)
CGATCGATTGATCTGTACGTGCGCTTTCAGGTTAATTTGTCGGAGTCACCTAGTGCAG	3580 fluorescence intensity (a.u.)
GGCACGTGCATGTACGCAAACGAGTTTCCAGATAAGTAAACGGAGTCACCTAGTGCAG	24900 fluorescence intensity (a.u.)
TGTGACCCAACTTTCCCCATCTGAGTCATCTGACCATCTCCGGAGTCACCTAGTGCAG	13900 fluorescence intensity (a.u.)
GTGATGCAAACACAGCCTTAGTCACCTGTTTAGACCGGCCCGGAGTCACCTAGTGCAG	3790 fluorescence intensity (a.u.)
TCTGATTGAACGAGTTTACAGATTGAGAAAGCACGCGTCACGGAGTCACCTAGTGCAG	3390 fluorescence intensity (a.u.)
CTTGGCATGATTCGGCAAACACTCAAACTGTTCTCACTTTCGGAGTCACCTAGTGCAG	3250 fluorescence intensity (a.u.)
TAAAGTTCACCTTCTTTTCCTGCTGTCATGACGTGAGCCTCGGAGTCACCTAGTGCAG	4170 fluorescence intensity (a.u.)
AAGGGCAGCATATACAGTCATACAGACTAGTATTAATTAGCGGAGTCACCTAGTGCAG	4370 fluorescence intensity (a.u.)
CTACGAGCACACGCCCTCGTACTCACCCGGACGGCGATGGCGGAGTCACCTAGTGCAG	3780 fluorescence intensity (a.u.)

Reprinted at random: three records from the list.
Sequence	binding signal
GCCATCAACTAAGCAGTTTCAGTGAAACTTCCACCATGCTCGGAGTCACCTAGTGCAG	21800 fluorescence intensity (a.u.)
CTTGGCATGATTCGGCAAACACTCAAACTGTTCTCACTTTCGGAGTCACCTAGTGCAG	3250 fluorescence intensity (a.u.)
CGATCGATTGATCTGTACGTGCGCTTTCAGGTTAATTTGTCGGAGTCACCTAGTGCAG	3580 fluorescence intensity (a.u.)

Carrying on.

Sequence	binding signal
GTTGACAAGAAATGACACGTGAGCATGATAGCTCAACGACCGGAGTCACCTAGTGCAG	7820 fluorescence intensity (a.u.)
AATTCCCATGCTGATTGCACGTCATAGGTGCATCTAGCGACGGAGTCACCTAGTGCAG	3530 fluorescence intensity (a.u.)
GCAGCGAGTGCTCTGTCTTTGCCCATCGCCTGACGCCGCACGGAGTCACCTAGTGCAG	4550 fluorescence intensity (a.u.)
CCTCAACGCACAGCTCGGTCAGCACAAACACCTCCCCTGCCGGAGTCACCTAGTGCAG	3320 fluorescence intensity (a.u.)
TTTGCTGACTGTAGTGACGTGTTTTGTTAAATCCATTATCCGGAGTCACCTAGTGCAG	10300 fluorescence intensity (a.u.)
AGCCGGCGGCGCGCACGTAGCACCACGGACTCCGCCAGCGCGGAGTCACCTAGTGCAG	3430 fluorescence intensity (a.u.)
CGGCATCGTCGTCCCGCGCGCCACGTGCTTCCCGCTCTAGCGGAGTCACCTAGTGCAG	5750 fluorescence intensity (a.u.)
ACCCCGCCACGCCACGCCGCGCCGGGCTGGGCTGCTGCTCCGGAGTCACCTAGTGCAG	4860 fluorescence intensity (a.u.)
CACGCTGTCCGGTCTCTCTTTCTATCTTGTGTTGACTCTGCGGAGTCACCTAGTGCAG	3680 fluorescence intensity (a.u.)
GAGAGGACGAAGGGAAAGAGAGAGATGGTGATGACGTGGCCGGAGTCACCTAGTGCAG	31600 fluorescence intensity (a.u.)
GTGGTCGTCGCTGATAGCGAGGTGGGTAGGGTTAATTTTGCGGAGTCACCTAGTGCAG	3890 fluorescence intensity (a.u.)
GATCGAGTCATACACATTTGACCAACCAAAGCCTTAGACTCGGAGTCACCTAGTGCAG	3270 fluorescence intensity (a.u.)
CTGCCGTCGTTTTGTTTACGCCTTTAAACAATGTGAAGACCGGAGTCACCTAGTGCAG	25900 fluorescence intensity (a.u.)
CAACCACCCCGCGATAGCTGGAGTCACCGGCGTTCACACACGGAGTCACCTAGTGCAG	3240 fluorescence intensity (a.u.)
GGAAGCTGGAGATTGGTCTTTCATGTCCTCATTGGCAAATCGGAGTCACCTAGTGCAG	3530 fluorescence intensity (a.u.)
ATACGCCTTTTAAAATATCGTCATTGAGCTTAACCTTTCTCGGAGTCACCTAGTGCAG	3620 fluorescence intensity (a.u.)
AAGGAAGGAAACTAGGAAAGGAGGAGTCATCACTGGTAGGCGGAGTCACCTAGTGCAG	6410 fluorescence intensity (a.u.)
GAAAGAGGACTCCGAGAGCTTTCCATCAAGTACTCACGGGCGGAGTCACCTAGTGCAG	16100 fluorescence intensity (a.u.)
CGTCCCCGCCGACGGCGTGTTCCTGGACGGCCACGCGCTGCGGAGTCACCTAGTGCAG	3630 fluorescence intensity (a.u.)
GATCCAGTAAGTTAGTTACTCCTAGTACGCGTAGAATGGACGGAGTCACCTAGTGCAG	3320 fluorescence intensity (a.u.)
CGGTGGAGTCATCATCAACCTCTATGCAAACGCTGCTGCCCGGAGTCACCTAGTGCAG	4230 fluorescence intensity (a.u.)
